Results are given in words; binding and its absence hold for the method and conditions named. In cells and extracts the contact can be indirect. Some entries that bind do so weakly or less than the wild type.

Protein sequences, listed by entry. Tags and fused reporters are not part of them. Residues count along the entry.
UniProt B0V2N1, residues 30-1907: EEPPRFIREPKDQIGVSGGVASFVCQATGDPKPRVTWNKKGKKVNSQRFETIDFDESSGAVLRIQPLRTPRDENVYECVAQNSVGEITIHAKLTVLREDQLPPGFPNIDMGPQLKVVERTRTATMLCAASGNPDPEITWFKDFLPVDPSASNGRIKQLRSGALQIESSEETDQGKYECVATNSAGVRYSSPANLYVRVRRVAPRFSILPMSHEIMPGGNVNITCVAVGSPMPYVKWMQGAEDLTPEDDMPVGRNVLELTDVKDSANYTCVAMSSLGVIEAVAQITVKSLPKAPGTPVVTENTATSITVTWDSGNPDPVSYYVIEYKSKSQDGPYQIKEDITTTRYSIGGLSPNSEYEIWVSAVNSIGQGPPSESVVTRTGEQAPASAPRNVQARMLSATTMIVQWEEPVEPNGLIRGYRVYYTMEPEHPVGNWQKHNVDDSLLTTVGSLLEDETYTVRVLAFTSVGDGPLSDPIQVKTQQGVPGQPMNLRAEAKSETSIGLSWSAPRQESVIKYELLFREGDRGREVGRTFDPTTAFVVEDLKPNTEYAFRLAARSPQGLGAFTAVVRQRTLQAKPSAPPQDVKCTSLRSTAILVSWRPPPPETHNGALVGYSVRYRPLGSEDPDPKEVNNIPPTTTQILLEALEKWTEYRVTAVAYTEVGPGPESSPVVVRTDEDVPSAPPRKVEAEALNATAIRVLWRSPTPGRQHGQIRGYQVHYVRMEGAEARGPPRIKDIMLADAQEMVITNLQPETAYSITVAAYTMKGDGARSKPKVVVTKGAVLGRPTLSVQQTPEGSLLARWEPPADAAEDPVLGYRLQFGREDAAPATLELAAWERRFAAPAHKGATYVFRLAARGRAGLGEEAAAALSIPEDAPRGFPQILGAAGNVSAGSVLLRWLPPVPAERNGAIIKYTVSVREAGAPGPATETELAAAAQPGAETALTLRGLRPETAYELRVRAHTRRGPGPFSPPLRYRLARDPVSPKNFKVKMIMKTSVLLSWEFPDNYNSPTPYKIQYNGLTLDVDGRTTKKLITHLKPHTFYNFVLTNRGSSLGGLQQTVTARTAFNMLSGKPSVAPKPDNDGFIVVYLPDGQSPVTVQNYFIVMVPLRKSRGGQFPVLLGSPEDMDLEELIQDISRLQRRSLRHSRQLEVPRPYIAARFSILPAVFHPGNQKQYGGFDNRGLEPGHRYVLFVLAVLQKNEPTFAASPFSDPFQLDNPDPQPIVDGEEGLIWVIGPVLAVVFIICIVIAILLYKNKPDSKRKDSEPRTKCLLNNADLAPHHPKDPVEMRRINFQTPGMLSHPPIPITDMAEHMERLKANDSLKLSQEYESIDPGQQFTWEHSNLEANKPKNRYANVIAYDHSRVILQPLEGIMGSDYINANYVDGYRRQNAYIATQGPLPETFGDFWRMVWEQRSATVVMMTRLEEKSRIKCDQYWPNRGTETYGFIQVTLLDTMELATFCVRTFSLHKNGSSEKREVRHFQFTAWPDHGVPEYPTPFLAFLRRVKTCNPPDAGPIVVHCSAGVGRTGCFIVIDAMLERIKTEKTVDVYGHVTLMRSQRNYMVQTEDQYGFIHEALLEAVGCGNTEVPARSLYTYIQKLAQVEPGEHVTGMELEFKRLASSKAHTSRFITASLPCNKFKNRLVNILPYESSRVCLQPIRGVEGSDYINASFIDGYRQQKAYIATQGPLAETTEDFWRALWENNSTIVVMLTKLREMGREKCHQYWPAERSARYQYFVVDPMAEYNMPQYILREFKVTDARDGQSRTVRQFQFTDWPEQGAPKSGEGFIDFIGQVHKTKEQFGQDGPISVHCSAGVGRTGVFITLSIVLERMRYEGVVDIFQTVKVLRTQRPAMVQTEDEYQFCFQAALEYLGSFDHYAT
UniProt Q9CS84, residues 31-1514: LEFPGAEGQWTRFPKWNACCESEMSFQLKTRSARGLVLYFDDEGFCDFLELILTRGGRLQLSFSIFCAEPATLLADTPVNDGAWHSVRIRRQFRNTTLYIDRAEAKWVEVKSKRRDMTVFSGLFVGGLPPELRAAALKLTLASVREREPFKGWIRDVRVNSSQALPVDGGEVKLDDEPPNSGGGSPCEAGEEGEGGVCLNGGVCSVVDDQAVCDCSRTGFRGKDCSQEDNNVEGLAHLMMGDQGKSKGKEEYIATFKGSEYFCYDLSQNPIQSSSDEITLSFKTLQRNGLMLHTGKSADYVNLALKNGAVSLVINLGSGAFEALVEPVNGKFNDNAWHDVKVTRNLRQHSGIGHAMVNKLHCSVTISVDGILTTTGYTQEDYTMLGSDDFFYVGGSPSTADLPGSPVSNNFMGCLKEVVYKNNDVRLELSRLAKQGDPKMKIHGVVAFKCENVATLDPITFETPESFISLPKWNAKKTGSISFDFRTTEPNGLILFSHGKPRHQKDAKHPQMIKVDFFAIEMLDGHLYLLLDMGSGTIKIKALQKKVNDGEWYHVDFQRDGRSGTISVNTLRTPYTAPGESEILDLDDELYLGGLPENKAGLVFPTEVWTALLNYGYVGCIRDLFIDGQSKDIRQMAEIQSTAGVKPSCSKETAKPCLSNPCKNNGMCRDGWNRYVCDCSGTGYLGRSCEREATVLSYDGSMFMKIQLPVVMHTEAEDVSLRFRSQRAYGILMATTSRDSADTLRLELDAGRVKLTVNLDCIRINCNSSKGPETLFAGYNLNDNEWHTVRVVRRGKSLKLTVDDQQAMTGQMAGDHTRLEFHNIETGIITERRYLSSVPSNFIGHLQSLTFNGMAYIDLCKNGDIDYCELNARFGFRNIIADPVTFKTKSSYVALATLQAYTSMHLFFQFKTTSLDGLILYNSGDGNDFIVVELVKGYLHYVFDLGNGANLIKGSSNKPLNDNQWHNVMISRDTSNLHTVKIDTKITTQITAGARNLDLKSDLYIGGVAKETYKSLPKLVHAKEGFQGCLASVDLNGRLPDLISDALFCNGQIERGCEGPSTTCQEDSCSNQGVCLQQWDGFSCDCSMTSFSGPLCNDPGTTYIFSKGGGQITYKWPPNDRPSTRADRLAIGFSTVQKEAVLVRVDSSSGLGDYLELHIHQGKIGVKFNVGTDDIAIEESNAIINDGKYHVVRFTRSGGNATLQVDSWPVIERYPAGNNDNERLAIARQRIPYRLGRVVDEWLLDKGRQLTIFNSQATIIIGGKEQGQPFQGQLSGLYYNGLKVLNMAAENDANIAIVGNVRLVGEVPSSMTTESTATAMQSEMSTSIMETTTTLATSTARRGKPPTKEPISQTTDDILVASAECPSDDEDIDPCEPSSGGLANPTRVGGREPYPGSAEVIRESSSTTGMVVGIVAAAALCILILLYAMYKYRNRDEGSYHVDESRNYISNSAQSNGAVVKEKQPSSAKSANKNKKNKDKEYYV
UniProt Q6P9K9, residues 28-1571: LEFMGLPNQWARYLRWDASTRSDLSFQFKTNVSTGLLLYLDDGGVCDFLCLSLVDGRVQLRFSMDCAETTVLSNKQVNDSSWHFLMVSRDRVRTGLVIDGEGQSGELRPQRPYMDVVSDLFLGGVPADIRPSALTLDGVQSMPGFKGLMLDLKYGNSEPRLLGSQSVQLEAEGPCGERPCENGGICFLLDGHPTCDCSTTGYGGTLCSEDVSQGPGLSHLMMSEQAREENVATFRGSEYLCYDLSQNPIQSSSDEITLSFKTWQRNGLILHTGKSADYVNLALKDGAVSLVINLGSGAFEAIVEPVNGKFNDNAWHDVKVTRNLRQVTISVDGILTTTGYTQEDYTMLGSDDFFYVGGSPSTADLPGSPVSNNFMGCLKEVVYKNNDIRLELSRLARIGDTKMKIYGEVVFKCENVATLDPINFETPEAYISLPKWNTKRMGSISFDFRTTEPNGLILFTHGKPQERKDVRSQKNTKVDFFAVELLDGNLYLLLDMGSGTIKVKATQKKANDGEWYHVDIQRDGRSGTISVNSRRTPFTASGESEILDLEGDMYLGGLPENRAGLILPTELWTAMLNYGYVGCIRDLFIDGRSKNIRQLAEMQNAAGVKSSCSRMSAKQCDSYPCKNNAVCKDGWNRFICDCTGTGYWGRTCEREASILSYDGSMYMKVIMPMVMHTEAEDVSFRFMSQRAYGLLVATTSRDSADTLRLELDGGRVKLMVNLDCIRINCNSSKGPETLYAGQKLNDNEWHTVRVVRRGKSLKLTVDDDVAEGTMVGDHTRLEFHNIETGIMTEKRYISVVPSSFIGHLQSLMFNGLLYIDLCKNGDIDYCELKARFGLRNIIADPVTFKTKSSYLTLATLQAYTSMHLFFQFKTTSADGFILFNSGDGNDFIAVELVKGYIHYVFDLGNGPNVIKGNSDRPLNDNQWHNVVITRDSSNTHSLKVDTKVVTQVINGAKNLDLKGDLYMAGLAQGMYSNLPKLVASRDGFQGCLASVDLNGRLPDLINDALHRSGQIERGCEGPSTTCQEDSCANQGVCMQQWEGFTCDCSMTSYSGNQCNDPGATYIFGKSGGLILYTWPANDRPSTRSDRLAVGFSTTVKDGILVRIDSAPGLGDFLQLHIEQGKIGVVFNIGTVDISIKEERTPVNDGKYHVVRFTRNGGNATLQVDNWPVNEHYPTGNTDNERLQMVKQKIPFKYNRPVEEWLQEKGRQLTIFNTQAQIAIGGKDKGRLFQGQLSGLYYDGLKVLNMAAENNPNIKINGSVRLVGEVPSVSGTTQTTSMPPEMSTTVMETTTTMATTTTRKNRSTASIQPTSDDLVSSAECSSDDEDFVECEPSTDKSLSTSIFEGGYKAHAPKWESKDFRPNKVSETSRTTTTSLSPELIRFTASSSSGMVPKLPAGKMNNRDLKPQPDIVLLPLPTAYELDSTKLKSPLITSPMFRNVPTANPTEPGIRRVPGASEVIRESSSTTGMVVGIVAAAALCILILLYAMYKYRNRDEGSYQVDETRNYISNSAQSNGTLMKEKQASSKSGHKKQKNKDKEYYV

Experiment [1] has as its target V5-tagged PTPRS (UniProt B0V2N1). As to the kind of experiment: co-IP; tsA201 cells co-expressing PTPRS-V5, T178B-Myc-FLAG and an HA-tagged neurexin (all three constituents); CL-91-solubilised membranes; anti-V5, anti-HA or anti-FLAG APs, Western blot.
Experiment [2] has the same target. Put plainly: co-IP; tsA201 cells, pairwise expression (two of PTPRS-V5, T178B-Myc-FLAG, HA-tagged neurexin; neurexin with PTPRS without T178B); CL-91-solubilised membranes; anti-V5, anti-HA or anti-FLAG APs, Western blot. Background: Immunoblotting shows a protein as a band on a membrane.

Consider “HA-tagged NRX1A (from UniProt Q9CS84 31-1514)”, for which the binding result with V5-tagged PTPRS [1] was “binds”; in the experiment with V5-tagged PTPRS [2], “binds weakly”.

For the substance NRX3A-HA (from UniProt Q6P9K9 28-1571), the results for the binding entry with V5-tagged PTPRS [1] and in the experiment with V5-tagged PTPRS [2] were “binds” and “binds weakly”, respectively.

For the origin of these results see PMC13546301.
